From doi:10.1101/2024.03.08.584103
These are yes or no findings as the source states them, for the method shown. Binding seen in cells or lysates may run through a third protein. Some entries that bind do so weakly or less than the wild type.

By UniProt entry, the sequences of proteins in these tests, tags left out.
UniProt P49336: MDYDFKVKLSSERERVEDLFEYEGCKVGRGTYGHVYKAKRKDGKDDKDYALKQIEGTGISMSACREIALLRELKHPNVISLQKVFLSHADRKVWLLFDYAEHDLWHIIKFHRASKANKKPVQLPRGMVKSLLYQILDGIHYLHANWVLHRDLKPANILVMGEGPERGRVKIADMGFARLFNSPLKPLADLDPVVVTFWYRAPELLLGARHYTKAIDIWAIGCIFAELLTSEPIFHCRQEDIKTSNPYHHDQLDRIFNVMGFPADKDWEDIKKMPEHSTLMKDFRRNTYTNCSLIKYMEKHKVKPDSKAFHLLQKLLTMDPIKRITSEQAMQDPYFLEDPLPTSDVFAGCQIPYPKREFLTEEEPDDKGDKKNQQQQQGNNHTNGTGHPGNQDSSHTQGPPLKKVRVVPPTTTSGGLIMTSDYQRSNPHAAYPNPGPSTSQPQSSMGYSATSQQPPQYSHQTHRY
UniProt Q13541: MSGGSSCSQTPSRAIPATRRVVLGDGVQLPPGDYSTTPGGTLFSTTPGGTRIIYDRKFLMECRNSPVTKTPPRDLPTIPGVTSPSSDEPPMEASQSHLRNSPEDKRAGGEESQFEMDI

Target: cyclin-dependent kinase 8 (CDK8) (human (endogenous in D458)) (UniProt P49336)
Assay: co-IP

- binding: binds
Substance: phospho-4EBP1 (T37/46) (from UniProt Q13541 1-118)
